Measured values: PubChem BioAssay AID2685 (National Center for Advancing Translational Sciences (NCATS), 2010)
The list shows a part of the results. Shown are side measurements of this screen, not its main read-out; they come without a call. The list favours compounds with an active or inconclusive main result. Words in brackets tell the shape of the fitted curve; partial curves, single points and poor fits give uncertain potencies.

Assay: qHTS Assay for Lipid Storage Modulators in Drosophila S3 Cells;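 as to cell number change: cells counted by Cell Tracker Red CMTPX staining in the red channel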
Settings: BODIPY lipid droplet fluorescence, 18-24 h; for cell number change: measured here: cell count max response, cells fed with added oleic acid
Method in brief: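 Laser-scanning cytometry quantifies lipid droplet accumulation (500–530 nm total intensity; droplet/cell object ratio) in oleic acid-fed (400 uM added) Drosophila S3 cells treated with a concentration series. 20 uM Triacsin C defined 100% inhibition.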

[1] = measured here: lipid fluorescence (Fed channel) AC50, cells fed with added oleic acid
[2] = measured here: cell number channel AC50, cells fed with added oleic acid

Compound	cell number change [%]	AC50 [1]	AC50 [2]
CCOC(=O)N1CCC2(CC1)C(C#N)=C(N)OC1=C2C(=O)CCC1	5.78	4110 nM [rising, single point]	
COc1ccc(C(=O)N2CCC(O)(c3ccc(F)cc3)CC2)cc1OC	14.4	18400 nM [rising, single point]	
CN(CC(=O)Nc1ccc(F)c(F)c1F)c1ncnc2sccc12			461 nM [falling, single point]
COc1ccc(CCNC(=O)c2n[nH]c(=O)c3ccccc23)cc1	-29.7	116 nM [falling, full curve, poor fit]	
C/C(=N\N1C(=O)c2ccccc2NC1c1ccco1)c1ccccc1O (stereo unspecified)	8.12		
CC(C)=CC(=O)O[C@H]1[C@@H]2[C@H](C)C(=O)O[C@@H]2C[C@@H](C)[C@@H]2[C@@H](O)CC(=O)[C@]21C	-12.9	3660 nM [falling, full curve, poor fit]	
Cc1sc2ncn(C(C)C(=O)OC3CCCCC3)c(=O)c2c1C (stereo unspecified)	-41.6		
COc1cc(S(=O)(=O)NCc2ccncc2)ccc1Br	-48		16400 nM [falling, partial curve, poor fit]
CCN(CC)c1ccc(/C=N/N2CCN(Cc3ccc(C)cc3C)CC2)c(O)c1	22.2		6510 nM [rising, partial curve, poor fit]
Cc1ccsc1C(=O)OCC(=O)Nc1nnc(-c2ccccc2)o1	3.45		
COc1ccc(C(=O)CN(C(=O)c2ccc(Cl)cc2)N2C(=O)C3CCCCC3C2=O)cc1 (stereo unspecified)	3.13	6510 nM [falling, single point]	
CCn1c(SCc2cccc(OC)c2)nc2ccccc2c1=O	7.66	11600 nM [falling, single point]	
Cc1ccc(C)n1-c1ccc(C(=O)NCC2CCCO2)cc1 (stereo unspecified)	-31.4	2060 nM [rising, single point]	29100 nM [falling, single point]
CN(C)C(=O)N1CCNCC1	14.7		92 nM [rising, full curve, poor fit]
Cc1cccc(C(=O)OCC(=O)NC(C)CCc2ccccc2)c1 (stereo unspecified)	14		
COCCNC(=O)C1CC(c2ccccc2C(F)(F)F)=NO1 (stereo unspecified)	24.3	820 nM [rising, single point]	65.1 nM [rising, full curve, poor fit]
O=C(Nc1cccc(F)c1)NC1(C(=O)N2CCC(O)CC2)CCCCC1	4.84	29100 nM [rising, single point]	
O=C(Nc1cccc(F)c1)c1cccnc1NCCc1ccccc1	-34.6	23100 nM [falling, single point]	20600 nM [falling, single point]
O=C(c1cccc(NS(=O)(=O)c2ccc(F)c(F)c2)c1)N1CCN(Cc2ccccc2)CC1	20.9		
COc1ccc(OC)c(NC(=O)c2ccc3c(c2)CCN3S(C)(=O)=O)c1	-7.61	4610 nM [rising, full curve]	

Compound	cell number change [%]	AC50 [1]	AC50 [2]
COc1ccccc1OCC(=O)NCCNC(=O)COc1ccccc1OC	-1.04	8200 nM [rising, partial curve, poor fit]	
C#Cc1cccc(NC(=O)c2ccc3c(c2)C(=O)N(Cc2cccnc2)C3=O)c1	-27.3		
CCOC(=O)c1ccccc1-c1csc(NS(=O)(=O)c2ccc(Cl)cc2)n1	-17.7	580 nM [falling, partial curve, poor fit]	1640 nM [falling, partial curve, poor fit]
O=C(CSc1nnc(NC(=O)c2ccccc2)s1)NCC1CCCO1 (stereo unspecified)	-32.7	29100 nM [rising, single point]	32600 nM [falling, single point]
CCc1c(C)nc2[nH]nc(NC(=O)C(F)(F)F)n2c1=O	2.39		
O=C(CC(C(=O)N1CCc2ccccc21)n1ccnc1)NCc1cccnc1 (stereo unspecified)	15.8	3260 nM [rising, partial curve]	
COc1ccc(-n2nc(C(=O)NCc3ccco3)c3c4ccccc4n(C)c3c2=O)cc1	24.1		2310 nM [rising, full curve, poor fit]
O=C(C1CC1)N1CCN(c2ccnc3cc(Cl)ccc23)CC1	2.6	291 nM [rising, partial curve, poor fit]	
COc1ccc(COCC(O)CN2CCC(C(N)=O)CC2)cc1OC (stereo unspecified)	8.61	651 nM [falling, full curve]	
COc1ccc([N+](=O)[O-])cc1NC(=O)c1ccccc1SC	26.4		
CCOC(=O)c1ccc(NC(=O)COc2cc(=O)n(CC)c3ccccc23)cc1	11	164 nM [rising, full curve, poor fit]	
COc1ccc(NC(=O)CSc2ccc3ccccc3c2)cc1S(=O)(=O)N1CCCCC1	18.9	5800 nM [rising, full curve]	
c1ccc2[nH]c(NCCCN3CCOCC3)nc2c1	-2.12	326 nM [falling, partial curve]	580 nM [falling, partial curve]
CC(=O)Nc1nnc(CSCc2ccccc2F)s1	2.12	517 nM [rising, full curve, poor fit]	
Cc1ccc2nc(N3CCN(C(=O)c4ccco4)CC3)c3nncn3c2c1	-18.6	2060 nM [falling, partial curve]	
COCCN(C(=O)Cc1cccs1)C(C(=O)NCc1ccc(OC)cc1)c1ccc(C)cc1 (stereo unspecified)	-38.6		29100 nM [falling, single point]
O=C(OCC(=O)N1CCN(c2ccccc2)CC1)c1cc(Br)ccc1Cl	11.3	46.1 nM [rising, full curve, poor fit]	
CC(CC(=O)Nc1cc(C(F)(F)F)ccc1Cl)c1ccccc1 (stereo unspecified)	-31.4	1640 nM [falling, partial curve]	651 nM [falling, full curve, poor fit]
COc1cc(N2C(=O)CC3(CCCC3)CC2=O)cc(OC)c1OC	-3.8	184 nM [falling, full curve, poor fit]	

Ordered by count of non-hydrogen atoms (falling): some entries from above.
Compound	cell number change [%]	AC50 [1]	AC50 [2]
COc1ccc(-n2nc(C(=O)NCc3ccco3)c3c4ccccc4n(C)c3c2=O)cc1	24.1		2310 nM [rising, full curve, poor fit]
COc1ccc(COCC(O)CN2CCC(C(N)=O)CC2)cc1OC (stereo unspecified)	8.61	651 nM [falling, full curve]	
c1ccc2[nH]c(NCCCN3CCOCC3)nc2c1	-2.12	326 nM [falling, partial curve]	580 nM [falling, partial curve]
